Values from PubChem BioAssay AID1508597 (Cure First, 2020)

Purpose: 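Knock-downs altering ovarian cancer cell survival with or without PARP inhibitor rucaparib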 (primary screen)
Cells: human ovarian carcinoma lines grown from tumours: OCI-P5x (papillary serous) and OCI-C5x (clear cell)
Knock-down reagent: siRNA pool against human genes, 1.25 pmol siRNA per well
Timing: 72 h or 96 h, depending on the cell culture
Treatment: rucaparib 20 µM (about IC30) or vehicle, present until read-out
Rucaparib or vehicle: Vehicle
Cell line: OCI-P5x (serous)
Measurement: 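ATP luminescence measured at 72 or 96 h according to the culture, then normalised and expressed as percent viability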
Reading the numbers: viability, normalised: higher = more viable cells remaining
Active means: 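a well counts as a hit if its normalised viability is under 80 percent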
Meaning of the calls: active = viability under 80%; inactive = viability 80% or more
This is an unselected part of the about 2,100 reagents, in one setting of the screen. 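Calls flag viability under 80% in either arm, not effects specific to rucaparib; the reference for percent is not stated.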 A reagent listed more than once was tested more than once; the source does not tell the runs apart. Not given: the 100% reference.

SETD7, technical replicate 1 gave viability, normalised (%) = 43; active.
SETD7, technical replicate 2 showed viability, normalised (%) = 63.7; active.
For SETD7, technical replicate 3 the deposit lists viability, normalised (%) = 84; inactive.
MED25, technical replicate 1 gave viability, normalised (%) = 66.1; active.
MED25, technical replicate 2 gave viability, normalised (%) = 72.6; active.
For MED25, technical replicate 3 the deposit lists viability, normalised (%) = 89.2; inactive.
TNKS2, technical replicate 1 scored viability, normalised (%) = 44.4; active.
TNKS2, technical replicate 1 showed viability, normalised (%) = 65.7; active.
TNKS2, technical replicate 2 showed viability, normalised (%) = 67.9; active.
TNKS2, technical replicate 2 gave viability, normalised (%) = 75.9; active.
For TNKS2, technical replicate 3, the entry reads viability, normalised (%) = 75; active.
For TNKS2, technical replicate 3, the values are viability, normalised (%) = 99.8; inactive.
With HJURP, technical replicate 1, the entry reads viability, normalised (%) = 81.8; inactive.
HJURP, technical replicate 2 scored viability, normalised (%) = 101; inactive.
For HJURP, technical replicate 3, the values are viability, normalised (%) = 132; inactive.
ZDHHC17, technical replicate 1 scored viability, normalised (%) = 56.4; active.
ZDHHC17, technical replicate 2 scored viability, normalised (%) = 57.4; active.
ZDHHC17, technical replicate 3 gave viability, normalised (%) = 78.3; active.
With XRCC5, technical replicate 1 the deposit lists viability, normalised (%) = 74; active.
XRCC5, technical replicate 2 showed viability, normalised (%) = 73.6; active.
For XRCC5, technical replicate 3, the entry reads viability, normalised (%) = 76.6; active.
NOTCH3, technical replicate 1 showed viability, normalised (%) = 67.8; active.
NOTCH3, technical replicate 2 showed viability, normalised (%) = 72.1; active.
With NOTCH3, technical replicate 3, the values are viability, normalised (%) = 82; inactive.
H1-4, technical replicate 1 gave viability, normalised (%) = 83.4; inactive.
With H1-4, technical replicate 2, the values are viability, normalised (%) = 51; active.
H1-4, technical replicate 3 scored viability, normalised (%) = 68.4; active.
For BAZ1A, technical replicate 1, the entry reads viability, normalised (%) = 69.7; active.
For BAZ1A, technical replicate 2, the entry reads viability, normalised (%) = 78.7; active.
BAZ1A, technical replicate 3 scored viability, normalised (%) = 89.2; inactive.
NAALADL1, technical replicate 1 showed viability, normalised (%) = 97.8; inactive.
NAALADL1, technical replicate 2 gave viability, normalised (%) = 54.9; active.
For NAALADL1, technical replicate 3, the entry reads viability, normalised (%) = 84.1; inactive.
